Where a chain is given by its changes, count along the chain named. Numbers in names are those of the source. These are yes or no findings as the source states them, for the method shown. Where a sequence is shown, tags or fusion partners need not be part of it.
Assays:
[1] = molecular target: ToScpA(E69C)-GFP-(His)10 (Thermococcus onnurineus) (UniProt B6YWU6); assay: cross-linking; BMOE (200 µM) cysteine cross-linking of co-purified ToSmcHd-CC80 and ToScpA(E69C)-GFP-(His)10 at 2 µM; 20 mM Tris-HCl pH 7.5, 100 mM NaCl, 10 min, 25°C; denaturing PAGE, GFP signal, Coomassie, bands confirmed by mass spectrometry; both purified
[2] = molecular target: T1, (His)10-MBP-tagged Thermococcus onnurineus ScpA (TON_1071) (Thermococcus onnurineus) (UniProt B6YWU6); assay: SEC; mixture of (His)10-MBP-tagged ScpA and ScpB homologue on Superdex 200 Increase 10/300 GL; 20 mM Tris-HCl pH 7.5, 100 mM NaCl, 1 mM DTT, 4°C; 10 µM each in 100 µl; both purified
T1 sequence: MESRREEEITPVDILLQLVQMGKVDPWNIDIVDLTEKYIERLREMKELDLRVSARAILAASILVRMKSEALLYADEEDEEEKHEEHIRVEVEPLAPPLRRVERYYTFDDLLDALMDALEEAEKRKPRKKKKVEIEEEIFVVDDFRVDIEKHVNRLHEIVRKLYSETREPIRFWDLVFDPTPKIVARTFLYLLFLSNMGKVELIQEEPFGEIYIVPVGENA

[3] = molecular target: T1, (His)10-MBP-tagged Thermococcus onnurineus ScpA (TON_1071) (Thermococcus onnurineus); assay: pull-down; (His)10 pull-down on Ni-NTA resin; (His)10-MBP-tagged ScpA held, untagged putative ScpB, 1 µM each; 20 mM Tris-HCl pH 7.5, 100 mM NaCl, 25°C, 10 min; wash with 30 mM imidazole; denaturing PAGE; both purified

B1: ToScpA(E69C)-GFP-(His)10 (protein, UniProt B6YWU6 1-220)
chain: T1 sequence with E69C
B1 was tested, and the binding [1] was “no binding”.

B2: TON_1955 (putative Thermococcus onnurineus ScpB), untagged (protein)
chain: MGLLEDKALVEAALFVSGRPLSIKELSRALGIRSLDYLEKLIELIAAEYAERKSAIEVVRVLGDKYVMQVKQEYSQRVVHLMPRPDLRTGELKTLALIAYLQPIEQSKLVKLRGSQAYEHIRKLLEMGLIYAEPYERTKLLGTTPKFAELYGFPENDPMMIKEAFKKVVHAEYSDLIAKLEGKEEKEEMPQESEE
For B2, the binding [2] was “no binding (tested: 10 µM each)” and the binding [3] was “no binding (tested: 1 µM each)”.

Source: paper PMC7055376, “Evidence for binary Smc complexes lacking kite subunits in archaea” (IUCrJ, 2020)
